Reference: PMC7862700
The entries are a selection whose mix differs from that of the whole data set. At the low end of the ranking, values are background and their order means little.

Each sequence was assayed against SPI1 (UniProt P17947) (assay: DAPPL (digital affinity profiling via proximity ligation, sequencing)). Settings: 10 mM Tris-HCl pH 7.5, 50 mM NaCl, 1 mM DTT, 4% glycerol, room temperature, 30 min; GST-TFs on glutathione beads, 16-mer random dsDNA library, 0.1% …; high values mean tight binding; double strand, one strand shown; scale: fold enrichment (6-mer frequency, TF over GST control).

Row | Sequence | binding signal
1 | GGCTTT | 0.859
2 | GGCTGC | 1.01
3 | CACCGG | 1.08
4 | CGTACG | 0.937
5 | TAGCGC | 0.918
6 | CCAGAA | 0.958
7 | CTTGTA | 1.39
8 | TGTACA | 1.28
9 | AAACGA | 1.1
10 | CAGCAT | 0.941
11 | GGTTTG | 1.06
12 | AAGAAC | 1.14
13 | TGCACA | 1.05
14 | GGAATG | 0.819
15 | TTCTTG | 1.45
16 | GAGAAA | 0.708
17 | TAAGCC | 1.08
18 | GCAACA | 0.872
19 | CTTCAC | 1.37

Row | Sequence | binding signal
20 | TGCCTT | 1.44
21 | CCCGTA | 1.19
22 | CTAGAC | 0.93
23 | CTGTCC | 1.25
24 | CATTAG | 0.859
25 | ACAAGA | 0.893
26 | CTCCAG | 1.21
27 | ATGTGC | 1.06
28 | TGTAGA | 0.941
29 | GATGGA | 0.88
30 | GAACTG | 1.2
31 | AGTGGT | 1.42
32 | TTTCCC | 1.69
33 | AAGGTC | 0.864
34 | GGCTAC | 0.954
35 | TGGCCA | 1.05
36 | GCGAAT | 0.991
37 | GTCACC | 0.897
38 | ACGTAC | 1.18

Single entries from the list.
For binding signal, CACCGG reads 1.08
For binding signal, GATGGA reads 0.88
